Data: article doi:10.1101/2025.08.13.669519
Results are given in words; binding and its absence hold for the method and conditions named. Some results given as binding are weak or reduced against the parent protein; the word gives no strength.

Protein sequences, listed by entry. Tags and fused reporters are not part of them. Residues count along the entry.
UniProt P02649, residues 19-317: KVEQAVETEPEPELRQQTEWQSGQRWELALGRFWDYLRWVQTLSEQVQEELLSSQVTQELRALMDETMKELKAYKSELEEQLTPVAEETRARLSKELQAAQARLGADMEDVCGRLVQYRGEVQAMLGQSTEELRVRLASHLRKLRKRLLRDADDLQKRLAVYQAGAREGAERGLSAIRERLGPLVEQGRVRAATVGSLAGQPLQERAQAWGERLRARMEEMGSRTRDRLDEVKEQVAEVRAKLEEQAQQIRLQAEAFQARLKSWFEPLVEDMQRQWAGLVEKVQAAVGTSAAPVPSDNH

Biological target: Apolipoprotein E3 (human) (UniProt P02649)
Assay: static light scattering

**Q.** How did the binding turn out when “Apolipoprotein E3 (from UniProt P02649 19-317)” was run?
**A.** binds weakly
